PubChem BioAssay AID652243 | Drosophila RNAi Screening Center – 2013
The deposit covers about 24,000 reagents; below is an unselected part of those with a known target gene and a result. Of all reagents, 246 (1%) were called active. 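Plates not normalised; calls are printed but the firefly/Renilla ratio behind them is not deposited; fold cut for lowering reported inconsistently.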 Raw values are not corrected between plates. Names joined by + are all predicted targets of the reagent. Not stated in the record: the amount of reagent.

- Aim: 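Fly regulators of androgen-dependent reporter output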 (primary screen)
- System: Drosophila S2R+ cells
- Reagents: long dsRNA against Drosophila genes
- Time to read-out: 72 h (48 h, then 24 h hormone)
- Treatment: synthetic androgen R1881 at 10 nM for 24 h
- Read-out: 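Firefly light from an androgen-responsive reporter and Renilla control light per well, raw and unnormalised, for each of two replicates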
- Direction: firefly reporter light: higher = more light from androgen-responsive reporter; Renilla control light: higher = more constitutive control signal (cell number, transfection)
- Rule for the call: 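Across duplicate plates, a knock-down whose log firefly/Renilla ratio shifted a set fold down or up from the GFP/LacZ control mean was a hit; the downward cut appears as both 1.5 and 3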
- Calls: active = hit: reporter lowered or raised; inactive = no hit

no.	target	amplicon	firefly reporter light, replicate 1	firefly reporter light, replicate 2	Renilla control light, replicate 1	Renilla control light, replicate 2	activity call
1	CG10232	DRSC14218	1.73e5	1.90e5	1.96e6	1.60e6	inactive
2	cN-IIIB (cytosolic 5'-nucleotidase IIIB)	DRSC04359	8.52e5	8.91e5	1.24e6	1.11e6	inactive
3	CG18666	DRSC02694	3.07e5	2.55e5	1.78e6	2.20e6	inactive
4	CG7352	DRSC16233	1.47e5	1.32e5	2.36e6	2.20e6	inactive
5	CG15877	DRSC08485	72632	67388	1.02e6	1.22e6	inactive
6	CG4570	DRSC15602	2.63e5	2.83e5	2.49e6	2.94e6	inactive
7	CG11374	DRSC00306	80754	80749	4.19e5	5.02e5	inactive
8	CG34040	DRSC38894	8.70e5	7.47e5	1.86e6	2.08e6	inactive
9	bon (bonus)	DRSC16914	2.50e5	2.55e5	2.94e6	3.03e6	inactive
10	CG4991	DRSC19928	1.50e5	1.25e5	6.30e5	6.53e5	inactive
11	ctp (cut up)	DRSC18758	87506	36402	4.39e5	3.50e5	inactive
12	ctp (cut up)	DRSC25165	7.58e5	7.93e5	9.96e5	6.94e5	inactive
13	Sem1 (Suppressor of exocyst mutations 1)	DRSC02282	1.20e5	1.20e5	1.09e6	8.29e5	inactive
14	Sem1 (Suppressor of exocyst mutations 1)	DRSC30061	6.17e5	7.63e5	6.54e5	8.06e5	inactive
15	Mon1 (Monensin sensitivity 1)	DRSC00336	62024	51249	3.75e5	4.66e5	inactive
16	Mon1 (Monensin sensitivity 1)	DRSC26726	2.51e5	2.37e5	7.09e5	6.52e5	inactive
17	CG15771	DRSC18077	1.63e5	2.39e5	1.39e6	2.09e6	inactive
18	ato (atonal)	DRSC16904	1.17e5	1.54e5	3.38e6	2.97e6	inactive
19	CG8547	DRSC07211	7.64e5	8.26e5	2.07e6	2.28e6	inactive
20	CG8547	DRSC28818	3.94e5	4.05e5	1.45e6	1.74e6	inactive
21	fs(1)h (female sterile (1) homeotic)	DRSC18778	4.77e5	4.01e5	4.45e6	2.66e6	inactive
22	fs(1)h (female sterile (1) homeotic)	DRSC29017	3.44e5	3.80e5	9.24e5	8.79e5	active
23	fs(1)h (female sterile (1) homeotic)	DRSC37010					inactive
24	Ser (Serrate)	DRSC16856	2.70e5	3.02e5	2.10e6	3.27e6	inactive
25	Ser (Serrate)	DRSC25494	1.94e5	1.20e5	5.85e5	3.84e5	inactive
26	Eig71Ea (Ecdysone-induced gene 71Ea)	DRSC11148	2.84e5	2.22e5	2.96e6	2.67e6	inactive

Reformatted: results already given
CG4991 [DRSC19928] | firefly reporter light, replicate 1 = 1.50e5; firefly reporter light, replicate 2 = 1.25e5; Renilla control light, replicate 1 = 6.30e5; Renilla control light, replicate 2 = 6.53e5; activity call = inactive
ctp (cut up) [DRSC18758] | firefly reporter light, replicate 1 = 87506; firefly reporter light, replicate 2 = 36402; Renilla control light, replicate 1 = 4.39e5; Renilla control light, replicate 2 = 3.50e5; activity call = inactive
ctp (cut up) [DRSC25165] | firefly reporter light, replicate 1 = 7.58e5; firefly reporter light, replicate 2 = 7.93e5; Renilla control light, replicate 1 = 9.96e5; Renilla control light, replicate 2 = 6.94e5; activity call = inactive
Sem1 (Suppressor of exocyst mutations 1) [DRSC02282] | firefly reporter light, replicate 1 = 1.20e5; firefly reporter light, replicate 2 = 1.20e5; Renilla control light, replicate 1 = 1.09e6; Renilla control light, replicate 2 = 8.29e5; activity call = inactive
Sem1 (Suppressor of exocyst mutations 1) [DRSC30061] | firefly reporter light, replicate 1 = 6.17e5; firefly reporter light, replicate 2 = 7.63e5; Renilla control light, replicate 1 = 6.54e5; Renilla control light, replicate 2 = 8.06e5; activity call = inactive
Mon1 (Monensin sensitivity 1) [DRSC00336] | firefly reporter light, replicate 1 = 62024; firefly reporter light, replicate 2 = 51249; Renilla control light, replicate 1 = 3.75e5; Renilla control light, replicate 2 = 4.66e5; activity call = inactive
Mon1 (Monensin sensitivity 1) [DRSC26726] | firefly reporter light, replicate 1 = 2.51e5; firefly reporter light, replicate 2 = 2.37e5; Renilla control light, replicate 1 = 7.09e5; Renilla control light, replicate 2 = 6.52e5; activity call = inactive
CG15771 [DRSC18077] | firefly reporter light, replicate 1 = 1.63e5; firefly reporter light, replicate 2 = 2.39e5; Renilla control light, replicate 1 = 1.39e6; Renilla control light, replicate 2 = 2.09e6; activity call = inactive
ato (atonal) [DRSC16904] | firefly reporter light, replicate 1 = 1.17e5; firefly reporter light, replicate 2 = 1.54e5; Renilla control light, replicate 1 = 3.38e6; Renilla control light, replicate 2 = 2.97e6; activity call = inactive
CG8547 [DRSC07211] | firefly reporter light, replicate 1 = 7.64e5; firefly reporter light, replicate 2 = 8.26e5; Renilla control light, replicate 1 = 2.07e6; Renilla control light, replicate 2 = 2.28e6; activity call = inactive

Next entries:
no.	target	amplicon	firefly reporter light, replicate 1	firefly reporter light, replicate 2	Renilla control light, replicate 1	Renilla control light, replicate 2	activity call
27	CG31867	DRSC03338	1.22e5	99091	1.04e6	8.67e5	inactive
28	ohgt (ohgata)	DRSC15521	1.17e5	1.33e5	2.37e6	2.68e6	inactive
29	ohgt (ohgata)	DRSC30024	3.94e5	3.68e5	9.70e5	1.06e6	inactive
30	CG33631	DRSC38823	6.62e5	6.31e5	2.22e6	1.63e6	inactive
31	CG11597	DRSC09847	1.04e6	8.93e5	1.28e6	1.11e6	inactive
32	drongo	DRSC00814	1.43e5	2.00e5	9.87e5	1.16e6	active
33	drongo	DRSC25074	2.23e5	3.32e5	2.79e5	4.45e5	inactive
34	primo-2 + primo-1	DRSC16511	1.90e5	1.93e5	3.11e6	3.50e6	inactive
35	primo-2 + primo-1	DRSC27823	2.75e5	2.94e5	5.05e5	6.28e5	inactive
36	RhoGAP15B (Rho GTPase activating protein at 15B)	DRSC19924	1.09e5	1.00e5	5.79e5	6.07e5	inactive
37	RhoGAP15B (Rho GTPase activating protein at 15B)	DRSC19925	2.91e5	2.52e5	3.58e6	3.52e6	inactive
38	Cf2 (Chorion factor 2)	DRSC23015	9.41e5	1.04e6	1.42e5	2.28e5	inactive
39	Cf2 (Chorion factor 2)	DRSC28177	3.19e5	3.45e5	1.01e6	6.76e5	inactive
40	CG11509 (retired record)	DRSC17788	1.10e5	1.07e5	1.17e6	7.35e5	inactive
41	CG3795	DRSC18593	1.15e5	95714	7.92e5	6.06e5	inactive
42	CG3795	DRSC25687	8.61e5	8.80e5	1.21e6	1.34e6	inactive
43	Btnd (Biotinidase)	DRSC18316	3.26e5	2.63e5	2.21e6	2.46e6	inactive
44	Btnd (Biotinidase)	DRSC24718	7.41e5	7.01e5	9.24e5	8.34e5	inactive
45	Btnd (Biotinidase)	DRSC38991	7.46e5	6.77e5	1.46e6	1.51e6	inactive
46	CG34034	DRSC38815	1.21e6	1.00e6	2.15e6	1.96e6	inactive
47	CG7785	DRSC16311	92963	1.46e5	1.37e6	1.39e6	inactive
48	CG2127	DRSC06821	3.55e5	4.22e5	2.00e6	1.78e6	inactive
49	CG6293	DRSC16011	32564	80889	3.79e5	3.67e5	inactive
50	CG6293	DRSC28774	6.66e5	5.15e5	1.43e6	1.26e6	inactive
51	bchs (blue cheese)	DRSC03126	1.10e5	77830	9.08e5	8.47e5	inactive
52	ed (echinoid)	DRSC00350	5.76e5	6.41e5	1.98e6	1.94e6	inactive
53	ed (echinoid)	DRSC00438	1.49e5	93281	9.15e5	6.50e5	inactive
54	ed (echinoid)	DRSC00439	1.42e5	1.00e5	9.33e5	8.28e5	inactive
55	ed (echinoid)	DRSC00478	1.17e5	95324	8.61e5	8.73e5	inactive
56	yellow-e2	DRSC15169	88477	1.52e5	1.03e6	1.70e6	inactive
57	CG12951	DRSC14579	78490	1.01e5	2.58e6	2.37e6	inactive
58	CG12951	DRSC25565	1.07e6	1.02e6	1.47e6	1.30e6	inactive
